Reference: PubChem BioAssay AID314 (DTP/NCI, 2004)
The list is a part of this screen's results and no random one: it gathers tests that were run many times, whatever their T/C, doses with no T/C, and many T/C values between a quarter and a half above the control. Other doses and runs of a compound stand elsewhere. T/C: endpoint of the treated group in % of that of the vehicle group. Some doses have a count of surviving animals in place of a T/C: the source files T/C as zero there, which appears to mark a toxic dose or a test without result, not a measured value. Some doses without a T/C left all or most animals alive at the check, yet need not have been tolerated: the source hardly ever lists a survival T/C far under the control, and the zero likely stands for such cases as well. Survivors were counted at the toxicity check, usually on the fifth day, unless a day is given; later deaths do not show. Schedule codes are those of the source, read here as Q, the interval in days (D) or hours (H), X, the number of doses. Some entries hold several experiments; the results are listed from low to high. Some molecules as drawn cover several salts, stereoisomers or complexes of the source; a dose is that of the sample tested. Where survival is the endpoint, this PubChem deposit counts one and a half times the control or more as active, and values a quarter to a half above the control carry no call in these data; other NCI protocols may use other cut-offs. Some T/C values are followed by the survivors on the day toxicity was checked, most often the fifth; where none is given, no animal had died by that day.

System: DBA/2 mice, P1534 leukemia ip, survival T/C
Experiment: NCI In Vivo Anticancer Drug Screen. Data for tumor model P1534 Leukemia (intraperitoneal) in DBA/2 mice
Details: T/C endpoint: mean survival time, higher T/C = longer survival
Description: The antitumor activity of compounds was measured in mice bearing transplantable tumors. Survival or tumor size were measured and the results are expressed as the measurement made in the treated group (T) divided by the measurement made in the vehicle treated control group (C). The tumor model used in this assay is P1534 Leukemia (intraperitoneal) in DBA/2 mice

[1] = dose: 2.5 mg/kg/injection, schedule: Q01DX010 (ip), vehicle: saline
[2] = dose: 20.0 mg/kg/injection, schedule: Q01DX010 (ip), vehicle: saline
[3] = dose: 12.5 mg/kg/injection, schedule: Q01DX010 (ip), vehicle: saline
[4] = dose: 25.0 mg/kg/injection, schedule: Q01DX010 (ip), vehicle: saline
[5] = dose: 50.0 mg/kg/injection, schedule: Q01DX010 (ip), vehicle: saline
[6] = dose: 100.0 mg/kg/injection, schedule: Q01DX010 (ip), vehicle: saline
[7] = dose: 40.0 mg/kg/injection, schedule: Q01DX010 (ip), vehicle: saline
[8] = dose: 5.0 mg/kg/injection, schedule: Q01DX010 (ip), vehicle: saline
[9] = dose: 10.0 mg/kg/injection, schedule: Q01DX010 (ip), vehicle: saline

N=C(N)SCc1c2ccccc2c(CSC(=N)N)c2ccccc12
T/C [1]: 130 % of control
survivor count [2]: 5 of 6

CCc1c(CC(=O)O)c2cc(C)ccc2n1Cc1ccc(Cl)cc1
survivor count [3]: 6 of 6
survivor count [4]: 6 of 6
survivor count [5]: 5 of 6
survivor count [6]: 4 of 6

Cn1c(O)c(N=NC(N)=S)c2ccccc21
survivor count (dose: 250.0 mg/kg/injection, schedule: Q01DX010 (ip), vehicle: saline): 5 of 6

CS(=O)(=O)OCCC(=O)N1CCN(C(=O)CCOS(C)(=O)=O)CC1
survivor count [3]: 6 of 6
T/C [4]: 138 % of control [5 of 6 alive]
survivor count [5]: 6 of 6
survivor count [6]: 6 of 6

O[C@H](CN1CC1)[C@@H](O)CN1CC1
T/C (dose: 0.12 mg/kg/injection, schedule: Q01DX010 (ip), vehicle: saline): 142 % of control
survivor count (dose: 0.5 mg/kg/injection, schedule: Q01DX010 (ip), vehicle: saline): 6 of 6
survivor count (dose: 1.0 mg/kg/injection, schedule: Q01DX010 (ip), vehicle: saline): 6 of 6

COc1ccc2[nH]c3c(C)c4ccncc4c(C)c3c2c1
survivor count [2]: 6 of 6
survivor count [7]: 6 of 6
survivor count (dose: 80.0 mg/kg/injection, schedule: Q01DX010 (ip), vehicle: saline): 6 of 6
survivor count (dose: 160.0 mg/kg/injection, schedule: Q01DX010 (ip), vehicle: saline): 6 of 6

CN(N=O)C(=O)NC(C=O)C(O)C(O)C(O)CO (stereo not given)
T/C (dose: 60.0 mg/kg/injection, schedule: Q01DX010 (ip), vehicle: saline): 127 % of control

CC(=O)O[C@]1(C(C)=O)CC[C@H]2[C@@H]3C[C@H](C)C4=CC(=O)C=C[C@]4(C)[C@@]3(F)[C@@H](O)C[C@@]21C
survivor count (dose: 25.0 mg/kg/injection, schedule: Q01DX010 (sc), vehicle: steroid suspending solution): 6 of 6
survivor count (dose: 50.0 mg/kg/injection, schedule: Q01DX010 (sc), vehicle: steroid suspending solution): 6 of 6
survivor count (dose: 100.0 mg/kg/injection, schedule: Q01DX010 (sc), vehicle: steroid suspending solution): 5 of 6

S=P(N1CCOCC1)(N1CC1)N1CC1
T/C [8]: 110, 111, 114 % of control
survivor count [8]: 6 of 6
T/C [9]: 110 % of control
survivor count [9]: 5 of 6 and 6 of 6
survivor count [2]: 6 of 6
survivor count [7]: 6 of 6

CN(C)/N=N/c1nc[nH]c1C(N)=O
survivor count (dose: 200.0 mg/kg/injection, schedule: Q01DX010 (ip), vehicle: saline): 5 of 6

Cn1cnc([N+](=O)[O-])c1Sc1ncnc2nc[nH]c12
survivor count [4]: 6 of 6
survivor count [5]: 5 of 6
survivor count [6]: 6 of 6

COC1=C(N)C(=O)c2nc(-c3nc(C(=O)O)c(C)c(-c4ccc(OC)c(OC)c4O)c3N)ccc2C1=O
survivor count (dose: 0.2 mg/kg/injection, schedule: Q01DX010 (ip), vehicle: other): 5 of 6
survivor count (dose: 0.3 mg/kg/injection, schedule: Q01DX010 (ip), vehicle: other): 5 of 6
survivor count (dose: 0.45 mg/kg/injection, schedule: Q01DX010 (ip), vehicle: other): 6 of 6
survivor count (dose: 0.66 mg/kg/injection, schedule: Q01DX010 (ip), vehicle: other): 4 of 6

NC(Cc1ccc(N(CCCl)CCCl)cc1)C(=O)O (stereo not given)
T/C [1]: 126 % of control
survivor count (dose: 4.0 mg/kg/injection, schedule: Q01DX010 (ip), vehicle: alkali diluted with saline): 6 of 6
survivor count [8]: 5 of 6
survivor count [9]: 6 of 6
